# Test results as given in the supplement of paper PMC8728848.
# This is one part of the list.
# Key:
# Assay in all cases: glycan array binding signal (z-score within array); higher = stronger binding
# Details in all cases: glycan notation: IUPAC condensed, linker removed
# [1] = molecular target: Fuc(a1-2)Gal6S(b1-3)GlcNAc6S
# In short: (§1)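 Negative Z-scores can be read as non-binding. The Z-score is calculated within each array and then averaged across arrays of one protein sequence at different concentrations or buffers and across linkers. Arrays, 3228 in all, were curated from the Consortium for Functional Glycomics database and kept only where the protein sequence was available.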
# [2] = molecular target: Fuc(a1-2)Gal6S(b1-4)Glc
# In short: as §1
# [3] = molecular target: Fuc(a1-2)Gal6S(b1-4)Glc6S
# In short: as §1
# [4] = molecular target: Fuc(a1-2)[Gal(a1-3)]Gal
# In short: as §1
# [5] = molecular target: Fuc(a1-2)[Gal(a1-3)]Gal(b1-3)GalNAc
# In short: as §1
# [6] = molecular target: Fuc(a1-2)[Gal(a1-3)]Gal(b1-3)GalNAc(b1-3)Gal(a1-4)Gal(b1-4)Glc
# In short: as §1
# [7] = molecular target: Fuc(a1-2)[Gal(a1-3)]Gal(b1-3)GlcNAc
# In short: as §1
# [8] = molecular target: Fuc(a1-2)[Gal(a1-3)]Gal(b1-3)GlcNAc(b1-2)Man(a1-3)[Fuc(a1-2)[Gal(a1-3)]Gal(b1-3)GlcNAc(b1-2)Man(a1-6)]Man(b1-4)GlcNAc(b1-4)GlcNAc
# In short: as §1
# [9] = molecular target: Fuc(a1-2)[Gal(a1-3)]Gal(b1-3)GlcNAc(b1-2)Man(a1-3)[Fuc(a1-2)[Gal(a1-3)]Gal(b1-3)GlcNAc(b1-2)Man(a1-6)]Man(b1-4)GlcNAc(b1-4)[Fuc(a1-6)]GlcNAc
# In short: as §1
# [10] = molecular target: Fuc(a1-2)[Gal(a1-3)]Gal(b1-3)GlcNAc(b1-3)GalNAc
# In short: as §1
# [11] = molecular target: Fuc(a1-2)[Gal(a1-3)]Gal(b1-3)GlcNAc(b1-6)GalNAc
# In short: as §1
# [12] = molecular target: Fuc(a1-2)[Gal(a1-3)]Gal(b1-4)Glc
# In short: as §1
# [13] = molecular target: Fuc(a1-2)[Gal(a1-3)]Gal(b1-4)GlcNAc
# In short: as §1
# [14] = molecular target: Fuc(a1-2)[Gal(a1-3)]Gal(b1-4)GlcNAc(b1-2)Man
# In short: as §1
# [15] = molecular target: Fuc(a1-2)[Gal(a1-3)]Gal(b1-4)GlcNAc(b1-2)Man(a1-3)[Fuc(a1-2)[Gal(a1-3)]Gal(b1-4)GlcNAc(b1-2)Man(a1-6)]Man(b1-4)GlcNAc(b1-4)GlcNAc
# In short: as §1
# [16] = molecular target: Fuc(a1-2)[Gal(a1-3)]Gal(b1-4)GlcNAc(b1-2)Man(a1-3)[Fuc(a1-2)[Gal(a1-3)]Gal(b1-4)GlcNAc(b1-2)Man(a1-6)]Man(b1-4)GlcNAc(b1-4)[Fuc(a1-6)]GlcNAc
# In short: as §1
# [17] = molecular target: Fuc(a1-2)[Gal(a1-3)]Gal(b1-4)GlcNAc(b1-3)GalNAc
# In short: as §1
# [18] = molecular target: Fuc(a1-2)[Gal(a1-3)]Gal(b1-4)GlcNAc(b1-3)[Fuc(a1-2)[Gal(a1-3)]Gal(b1-4)GlcNAc(b1-6)]GalNAc
# In short: as §1
# [19] = molecular target: Fuc(a1-2)[Gal(a1-3)]Gal(b1-4)GlcNAc(b1-6)GalNAc
# In short: as §1
# [20] = molecular target: Fuc(a1-2)[Gal(a1-3)]Gal(b1-4)[Fuc(a1-3)]Glc
# In short: as §1
# [21] = molecular target: Fuc(a1-2)[Gal(a1-3)]Gal(b1-4)[Fuc(a1-3)]GlcNAc
# In short: as §1
# [22] = molecular target: Fuc(a1-2)[Gal(a1-3)]Gal(b1-4)[Fuc(a1-3)]GlcNAc(b1-3)GalNAc
# In short: as §1
# [23] = molecular target: Fuc(a1-2)[Gal(a1-4)]Gal(b1-4)GlcNAc
# In short: as §1
# [24] = molecular target: Fuc(a1-2)[GalNAc(a1-3)]Gal
# In short: as §1
# [25] = molecular target: Fuc(a1-2)[GalNAc(a1-3)]Gal(b1-3)GalNAc(a1-3)[Fuc(a1-2)]Gal(b1-4)GlcNAc
# In short: as §1
# [26] = molecular target: Fuc(a1-2)[GalNAc(a1-3)]Gal(b1-3)GalNAc(b1-3)Gal(a1-4)Gal(b1-4)Glc
# In short: as §1
# [27] = molecular target: Fuc(a1-2)[GalNAc(a1-3)]Gal(b1-3)GlcNAc
# In short: as §1
# [28] = molecular target: Fuc(a1-2)[GalNAc(a1-3)]Gal(b1-3)GlcNAc(b1-2)Man(a1-3)[Fuc(a1-2)[GalNAc(a1-3)]Gal(b1-3)GlcNAc(b1-2)Man(a1-6)]Man(b1-4)GlcNAc(b1-4)GlcNAc
# In short: as §1
# [29] = molecular target: Fuc(a1-2)[GalNAc(a1-3)]Gal(b1-3)GlcNAc(b1-2)Man(a1-3)[Fuc(a1-2)[GalNAc(a1-3)]Gal(b1-3)GlcNAc(b1-2)Man(a1-6)]Man(b1-4)GlcNAc(b1-4)[Fuc(a1-6)]GlcNAc
# In short: as §1
# [30] = molecular target: Fuc(a1-2)[GalNAc(a1-3)]Gal(b1-3)GlcNAc(b1-3)GalNAc
# In short: as §1
# [31] = molecular target: Fuc(a1-2)[GalNAc(a1-3)]Gal(b1-3)GlcNAc(b1-6)GalNAc
# In short: as §1
# [32] = molecular target: Fuc(a1-2)[GalNAc(a1-3)]Gal(b1-4)Glc
# In short: as §1
# [33] = molecular target: Fuc(a1-2)[GalNAc(a1-3)]Gal(b1-4)GlcNAc
# In short: as §1
# [34] = molecular target: Fuc(a1-2)[GalNAc(a1-3)]Gal(b1-4)GlcNAc(b1-2)Man
# In short: as §1
# [35] = molecular target: Fuc(a1-2)[GalNAc(a1-3)]Gal(b1-4)GlcNAc(b1-2)Man(a1-3)[Fuc(a1-2)[GalNAc(a1-3)]Gal(b1-4)GlcNAc(b1-2)Man(a1-6)]Man(b1-4)GlcNAc(b1-4)GlcNAc
# In short: as §1
# [36] = molecular target: Fuc(a1-2)[GalNAc(a1-3)]Gal(b1-4)GlcNAc(b1-2)Man(a1-3)[Fuc(a1-2)[GalNAc(a1-3)]Gal(b1-4)GlcNAc(b1-2)Man(a1-6)]Man(b1-4)GlcNAc(b1-4)[Fuc(a1-6)]GlcNAc
# In short: as §1
# [37] = molecular target: Fuc(a1-2)[GalNAc(a1-3)]Gal(b1-4)GlcNAc(b1-3)Gal(b1-4)GlcNAc
# In short: as §1
# [38] = molecular target: Fuc(a1-2)[GalNAc(a1-3)]Gal(b1-4)GlcNAc(b1-3)Gal(b1-4)GlcNAc(b1-3)Gal(b1-4)GlcNAc
# In short: as §1
# [39] = molecular target: Fuc(a1-2)[GalNAc(a1-3)]Gal(b1-4)GlcNAc(b1-3)GalNAc
# In short: as §1
# [40] = molecular target: Fuc(a1-2)[GalNAc(a1-3)]Gal(b1-4)GlcNAc(b1-3)[Fuc(a1-2)[GalNAc(a1-3)]Gal(b1-4)GlcNAc(b1-6)]GalNAc
# In short: as §1
# [41] = molecular target: Fuc(a1-2)[GalNAc(a1-3)]Gal(b1-4)GlcNAc(b1-6)GalNAc
# In short: as §1
# [42] = molecular target: Fuc(a1-2)[GalNAc(a1-3)]Gal(b1-4)[Fuc(a1-3)]GlcNAc
# In short: as §1
# [43] = molecular target: Fuc(a1-2)[GalNAc(a1-3)]Gal(b1-4)[Fuc(a1-3)]GlcNAc(b1-3)GalNAc
# In short: as §1
# [44] = molecular target: Fuc(a1-2)[GalNAc(a1-4)]Gal(b1-4)GlcNAc
# In short: as §1
# [45] = molecular target: Fuc(a1-2)[GalNAc(b1-3)]Gal
# In short: as §1
binder,measurement,setting,value
Pwp7 (Candida glabrata) (protein) MGSSHHHHHHSSGLVPRGSHMASKNPVDFPNLCQYPNLDGAVAGFDTEIYNADPSILINFSLWPILQFPKEWHKTIGRAITTQTNFKLPASDTTLFGVSIPTQNILIEFRGYFIPPKSGTYTFALYLTDDGSAMFLGNDAAFPCGNITSWSNPTNDQVSVSDYDPKKKTLTVYMVAGVAYPLRIAYYNREKGGSLTASFVDPDGLTHSDWNGYIWTLPSCDNCKYS,glycan array binding signal (z-score),[1],-0.446
same,glycan array binding signal (z-score),[2],-0.508
same,glycan array binding signal (z-score),[3],-0.139
same,glycan array binding signal (z-score),[4],-0.131
same,glycan array binding signal (z-score),[5],-0.409
same,glycan array binding signal (z-score),[6],1.17
same,glycan array binding signal (z-score),[7],-0.834
same,glycan array binding signal (z-score),[8],0.472
same,glycan array binding signal (z-score),[9],1.13
same,glycan array binding signal (z-score),[10],-0.264
same,glycan array binding signal (z-score),[11],0.673
same,glycan array binding signal (z-score),[12],-0.515
same,glycan array binding signal (z-score),[13],-0.174
same,glycan array binding signal (z-score),[14],0.021
same,glycan array binding signal (z-score),[15],-0.802
same,glycan array binding signal (z-score),[16],0.728
same,glycan array binding signal (z-score),[17],0.048
same,glycan array binding signal (z-score),[18],0.334
same,glycan array binding signal (z-score),[19],0.537
same,glycan array binding signal (z-score),[20],-0.823
same,glycan array binding signal (z-score),[21],-0.054
same,glycan array binding signal (z-score),[22],-0.319
same,glycan array binding signal (z-score),[23],-0.779
same,glycan array binding signal (z-score),[24],-1.05
same,glycan array binding signal (z-score),[25],-0.476
same,glycan array binding signal (z-score),[26],0.982
same,glycan array binding signal (z-score),[27],-0.796
same,glycan array binding signal (z-score),[28],0.965
same,glycan array binding signal (z-score),[29],-0.65
same,glycan array binding signal (z-score),[30],1.56
same,glycan array binding signal (z-score),[31],0.672
same,glycan array binding signal (z-score),[32],-0.719
same,glycan array binding signal (z-score),[33],-0.711
same,glycan array binding signal (z-score),[34],-0.076
same,glycan array binding signal (z-score),[35],-0.186
same,glycan array binding signal (z-score),[36],0.196
same,glycan array binding signal (z-score),[37],-0.963
same,glycan array binding signal (z-score),[38],0.036
same,glycan array binding signal (z-score),[39],1.38
same,glycan array binding signal (z-score),[40],0.835
same,glycan array binding signal (z-score),[41],0.877
same,glycan array binding signal (z-score),[42],-0.052
same,glycan array binding signal (z-score),[43],0.099
same,glycan array binding signal (z-score),[44],-1.38
same,glycan array binding signal (z-score),[45],-0.704

# Looked up one by one from the list above (2):
binder,measurement,setting,value
Pwp7 (Candida glabrata) (protein) MGSSHHHHHHSSGLVPRGSHMASKNPVDFPNLCQYPNLDGAVAGFDTEIYNADPSILINFSLWPILQFPKEWHKTIGRAITTQTNFKLPASDTTLFGVSIPTQNILIEFRGYFIPPKSGTYTFALYLTDDGSAMFLGNDAAFPCGNITSWSNPTNDQVSVSDYDPKKKTLTVYMVAGVAYPLRIAYYNREKGGSLTASFVDPDGLTHSDWNGYIWTLPSCDNCKYS,glycan array binding signal (z-score),[33],-0.711
same,glycan array binding signal (z-score),[21],-0.054
